We go through six molecules from US20150017162A1.

Protein sequences, listed by entry. Tags and fused reporters are not part of them. Lines headed by an entry give the natural chain unless they say otherwise; changes in a name come on top.
UniProt O00187: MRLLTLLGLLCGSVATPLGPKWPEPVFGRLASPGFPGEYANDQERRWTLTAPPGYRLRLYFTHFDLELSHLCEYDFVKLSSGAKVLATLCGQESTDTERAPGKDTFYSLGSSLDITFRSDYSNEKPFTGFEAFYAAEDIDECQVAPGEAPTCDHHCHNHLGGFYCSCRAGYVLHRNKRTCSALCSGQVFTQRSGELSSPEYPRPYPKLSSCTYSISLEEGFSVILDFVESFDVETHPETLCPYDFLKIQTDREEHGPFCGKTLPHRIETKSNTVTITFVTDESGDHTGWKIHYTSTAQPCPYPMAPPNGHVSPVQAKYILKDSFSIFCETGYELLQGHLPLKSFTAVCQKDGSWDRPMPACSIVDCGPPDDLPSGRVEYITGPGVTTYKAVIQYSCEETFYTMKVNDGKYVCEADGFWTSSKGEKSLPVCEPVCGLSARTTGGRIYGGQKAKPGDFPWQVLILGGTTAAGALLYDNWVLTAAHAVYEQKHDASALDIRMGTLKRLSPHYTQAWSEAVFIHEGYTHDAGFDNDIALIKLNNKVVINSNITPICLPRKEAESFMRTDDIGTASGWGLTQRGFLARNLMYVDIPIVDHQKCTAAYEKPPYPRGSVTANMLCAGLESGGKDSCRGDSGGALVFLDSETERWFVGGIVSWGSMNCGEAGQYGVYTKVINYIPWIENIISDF

Results are given in words; binding and its absence hold for the method and conditions named. Some binding calls cover weakened binding; strength is not graded here.

The target in assay [1] is human MASP-2 (human) (UniProt O00187). Kind of assay: phage display panning and ELISA screening (Example 5, as told in the description). For orientation: ELISA stands for enzyme-linked immunosorbent assay.
Assay [2] has the same target. Briefly: Western blot. On the technique in general: In western blotting, separated proteins are transferred to a membrane and probed.

B1: scFv clone 17N16 (scFv)
scFv: QVQLQQSGPGLVKPSQTLSLTCAISGDSVSSTSAAWNWIRQSPSRGLEWLGRTYYRSKWYNDYAVSVKSRITINPDTSKNQFSLQLNSVTPEDTAVYYCARDPFGVPFDIWGQGTMVTVSSKLSGSASAPKLEEGEFSEARVSYVLTQPPSVSVAPGQTARITCGGNNIGSKNVHWYQQKPGQAPVLVVYDDSDRPSGIPERFSGSNSGNTATLTVSRVEAGDEADYYCQVWDTTTDHVVFGGGTKLTVLAAAGSEQKLISEEDLNSHHHHHH
In the case of B1, in the assay with human MASP-2 (human) [1], the binding entry was “binds”.

B2: scFv clone 9P13 (scFv)
scFv: QVQLQQSGPGLVKPSQTLSLTCAISGDSVSSNSAAWNWIRQSPSRGLEWLGRTYYRSKWYNDYAVSVKSRITINPDTSKNQFSLQLNSVTPEDTAVYYCARDPFGVPFDIWGQGTMVTVSSKLSGSASAPKLEEGEFSEARVSYELTQLPSVSVAPGQTARVTCGGNNIRSKNVHWYQQKPGQAPVLVVYDDTDRPSGIPERFSGSNSGNTATLTVSRVEAGDEADYYCQVWDTTTDHVVFGGGTKVTVLAAAGSEQKLISEEDLNSHHHHHH
For the molecule B2, in the assay with human MASP-2 (human) [1], the binding entry is given as “binds”.

B3: scFv clone 3F22 (scFv)
scFv: QVQLQQSGPGLVKPSQTLSLTCAISGDSVSSNSAAWNWIRQSPSRGLEWLGRTYYRSKWYNDYAVSVKSRITINPDTSKNQFSLQLNSVTPEDTAVYYCARDPFGVPFDIWGQGTMVTVSSKLSGSASAPKLEEGEFSEARVSYVLTQPPSVSVAPGQTARVTCGGNNIRSKNVHWYQQKPGQAPVLVVYDDTDRPSGIPERFSGSNSGNTATLTVSRVEAGDEADYYCQVWDTTTDHVVFGGGTKLTVLAAAGSEQKLISEEDLNSHHHHHH
For the molecule B3, the binding result in the assay with human MASP-2 (human) [1] is recorded as “binds”.

B4: scFv clone 4D9 (scFv)
scFv: QITLKESGPVLVKPTETLTLTCTVSGFSLSNARMGVSWIRQPPGKALEWLAHIFSNDEKSYSTSLKSRLTISKDTSKSQVVLTMTNMDPVDTATYYCARMRYSSSLYGMDVWGQGTRVTVSSKLSGSASAPKLEEGEFSEARVSYELIQPPSVSVSPGQTASITCSGDKLGDKYVSWYQQKPGRSPVLVIYRDTKRPSGIPERFSGSNSGNTATLTISGTQAMDEADYYCQAWDSSTVVFGGGTKLTVLAAAGSEQKLISEEDLNSHHHHHH
Turning to B4, the binding entry with human MASP-2 (human) [1] is “binds”.

B5: NimoAb101 (antibody, V domains shown)
VH: EVQLVESGGGLVQPGRSLKLSCLVSGFTFSNFGMNWIRQAPGKGLEWVASISSGGTYIYHADTLKGRFTISRENAKNTLYLQMTSLRSEDTALYYCARGPYHSRYIPYLMDAWGQGASVTVSS
VL: DIQMTQSPGSLCASLGETVTIECRASDDIYSNLAWYQQKPGNSPQLLIFDGNRLADGVPSRFSGSGSGTQYSLKMKSLQFEDVASYFCQQYNNYPLTFGSGTKLEIKR
As for B5, the binding result with human MASP-2 (human) [2] was “binds”.

B6: scFv clone 17D20 (scFv)
scFv: QVTLKESGPVLVKPTETLTLTCTVSGFSLSRGKMGVSWIRQPPGKALEWLAHIFSSDEKSYRTSLKSRLTISKDTSKNQVVLTMTNMDPVDTATYYCARIRAGGIDYWGQGTLVTVSSKLSGSASAPKLEEGEFSEARVQPVLTQPPSVSVSPGQTASITCSGDKLGDKFAYWYQQKPGHSPVLVIYQDNKRPSGIPGRFSGSNSGNTATLTISGTQAMDEADYYCQAWDSSTAVFGTGTKVTVLAAAGSEQKLISEEDLNSHHHHHH
With B6, the binding result in the assay with human MASP-2 (human) [1] was “binds”.
